These are yes or no findings as the source states them, for the method shown. Binding seen in cells or lysates may run through a third protein. Tags and fused reporters may be left off the sequences shown.
Biological target: T1, ubiquitin specific protease 50 (Flag-USP50) (UniProt Q70EL3)
T1 sequence: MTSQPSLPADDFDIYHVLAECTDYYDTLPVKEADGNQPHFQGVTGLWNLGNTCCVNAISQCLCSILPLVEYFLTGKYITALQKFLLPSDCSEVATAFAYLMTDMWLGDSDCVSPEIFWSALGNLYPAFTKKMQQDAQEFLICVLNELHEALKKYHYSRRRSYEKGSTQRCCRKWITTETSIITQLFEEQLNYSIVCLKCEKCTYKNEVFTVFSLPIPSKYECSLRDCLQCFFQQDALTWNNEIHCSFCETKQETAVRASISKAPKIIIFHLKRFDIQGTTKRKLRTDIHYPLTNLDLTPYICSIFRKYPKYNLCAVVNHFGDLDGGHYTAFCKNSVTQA
Assay: co-IP; lysate of U937 cells stably expressing Flag-USP50 (or vector); anti-FLAG antibody overnight at 4°C, agarose 4 h, washed three times; western blotting of the precipitate

Protein sequences, listed by entry. Tags and fused reporters are not part of them. Lines headed by an entry give the natural chain unless they say otherwise; changes in a name come on top.
UniProt P01584: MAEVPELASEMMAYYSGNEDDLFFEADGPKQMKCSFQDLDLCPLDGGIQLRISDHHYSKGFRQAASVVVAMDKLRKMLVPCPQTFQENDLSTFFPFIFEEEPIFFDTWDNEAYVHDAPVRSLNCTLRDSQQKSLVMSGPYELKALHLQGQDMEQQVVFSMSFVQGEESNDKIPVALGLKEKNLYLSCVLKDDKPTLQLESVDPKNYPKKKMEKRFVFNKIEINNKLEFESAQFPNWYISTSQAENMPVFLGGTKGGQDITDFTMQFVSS

In the case of pro-IL-1β (from UniProt P01584), the binding is reported as “no binding”.
